{"sequences": {"note": "Protein sequences, listed by entry. Tags and fused reporters are not part of them.", "UniProt P13612, whole entry, looked up": "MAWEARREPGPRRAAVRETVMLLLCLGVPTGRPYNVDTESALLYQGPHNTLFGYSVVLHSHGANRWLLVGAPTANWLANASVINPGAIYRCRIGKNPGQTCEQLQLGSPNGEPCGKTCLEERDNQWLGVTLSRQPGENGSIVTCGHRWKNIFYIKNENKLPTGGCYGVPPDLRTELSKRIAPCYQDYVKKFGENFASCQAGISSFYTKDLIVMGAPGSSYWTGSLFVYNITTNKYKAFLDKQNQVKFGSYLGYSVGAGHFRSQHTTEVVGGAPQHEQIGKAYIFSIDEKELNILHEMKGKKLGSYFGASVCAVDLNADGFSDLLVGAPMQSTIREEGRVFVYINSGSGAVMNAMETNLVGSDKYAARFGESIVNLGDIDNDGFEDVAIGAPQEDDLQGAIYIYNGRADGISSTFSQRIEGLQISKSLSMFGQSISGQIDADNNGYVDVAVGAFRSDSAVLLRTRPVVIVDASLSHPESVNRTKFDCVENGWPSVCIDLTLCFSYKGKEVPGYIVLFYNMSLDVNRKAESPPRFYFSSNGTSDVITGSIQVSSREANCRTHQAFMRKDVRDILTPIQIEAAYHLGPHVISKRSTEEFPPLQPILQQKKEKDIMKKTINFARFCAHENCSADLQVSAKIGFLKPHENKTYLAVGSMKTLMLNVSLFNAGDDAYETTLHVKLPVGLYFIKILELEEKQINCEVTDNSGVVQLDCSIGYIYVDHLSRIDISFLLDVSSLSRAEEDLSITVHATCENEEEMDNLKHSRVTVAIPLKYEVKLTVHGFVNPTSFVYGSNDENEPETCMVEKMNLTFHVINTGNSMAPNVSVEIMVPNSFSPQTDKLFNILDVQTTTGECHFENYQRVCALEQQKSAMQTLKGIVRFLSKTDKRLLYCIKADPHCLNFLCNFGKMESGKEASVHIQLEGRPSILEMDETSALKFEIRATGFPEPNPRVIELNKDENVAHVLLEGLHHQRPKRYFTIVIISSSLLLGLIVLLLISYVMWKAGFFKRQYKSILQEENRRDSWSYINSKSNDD"}, "source": "PubChem BioAssay AID529", "about": "(NMMLSC, 2006)", "note": "In all, about 24,000 compounds went through this assay and about 50 (0.2%) were called active. Inconclusive results, whose numbers are uncertain, are shown with a selection of clear calls.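 How the source made its calls: active means inhibition above 50%; inconclusive means compound itself fluorescent, judged against control cell fluorescence; inactive means the rest.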"}
{"target": "Integrin alpha-4 (Homo sapiens) (UniProt P13612)", "test": "blockers of LDV-FITC ligand binding on VLA-4 – Jurkat cells, Mn2+ activated, primary screen (AID 529);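 on inhibition: 0% = Mn2+ stimulated cells lacking compound and 100% = ligand binding without Mn2+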", "settings": "LDV-FITC binding with Mn2+, flow cytometry; active compounds read high, screened at 10 µM (by protocol), 100% = Mn2+-driven binding gain fully reversed unless noted"}
{"compound": "Cc1ccc(OC(=O)NC2CCS(=O)(=O)C2)cc1C", "note": "(centres undefined)", "inhibition": "inactive: -25.5%"}
{"compound": "Cc1cc(=O)oc2c1c(C)nn2-c1ccc(C(=O)OC(C)C)cc1", "inhibition": "inactive: -10%"}
{"compound": "COc1ccc(OCCSc2ncnc3nc[nH]c23)cc1", "inhibition": "inconclusive"}
{"compound": "Cn1c(C(=O)N2CCCC(C(=O)N3CCN(C(=O)c4ccco4)CC3)C2)cc2sccc21", "note": "(centres undefined)", "inhibition": "inconclusive"}
{"compound": "CCOC(=O)CC(=O)CSc1nc(-c2cccnc2)cc(C)c1C#N", "inhibition": "inconclusive"}
{"compound": "COc1ccc(S(=O)(=O)N2CCCN(CCC(=O)Nc3cccc(C(F)(F)F)c3)CC2)cc1", "inhibition": "inconclusive"}
{"compound": "CN(C)S(=O)(=O)c1ccc(C(=O)N2CCN=C2SCc2cccnc2)cc1", "inhibition": "inconclusive"}
{"compound": "CC1Cc2ccccc2N1C(=O)CCN1C(=O)C2C3C=CC(C3)C2C1=O", "note": "(centres undefined)", "inhibition": "inconclusive"}
{"compound": "Cc1ccccc1NC(=O)NCCN1C(=O)C2C3C=CC(C3)C2C1=O", "note": "(centres undefined)", "inhibition": "inconclusive"}
{"compound": "O=S(=O)(NCc1cn2ccsc2n1)c1ccc2c(c1)OCCO2", "inhibition": "inactive: -10.3%"}
{"compound": "O=C(NCc1ccc2c(c1)OCO2)C1CCCN(S(=O)(=O)c2cccs2)C1", "note": "(centres undefined)", "inhibition": "inactive: 3% [active compounds read high, 100% = Mn2+-driven binding gain fully reversed, screened at 10 µM (by protocol)]"}
{"compound": "COc1ccc(-c2nc(CN3CCC(C(=O)N4CCc5ccccc54)CC3)c(C)o2)cc1OC", "inhibition": "inconclusive"}
{"compound": "O=C(CC1N=C2c3ccccc3N=C(SCc3ccccc3Cl)N2C1=O)NCc1ccco1", "note": "(centres undefined)", "inhibition": "inconclusive"}
{"compound": "O=C(CSc1nnc(-c2cnccn2)n1Cc1ccco1)c1ccc(Cl)cc1", "inhibition": "inconclusive"}
{"compound": "Cc1cc(Nc2cccc(Cl)c2)n2ncnc2n1", "inhibition": "inconclusive"}
{"compound": "CCC(NS(=O)(=O)c1c(C)[nH]c(=O)[nH]c1=O)C12CC3CC(CC(C3)C1)C2", "note": "(centres undefined)", "inhibition": "inconclusive"}
{"compound": "COc1ccc2c(c1)CCc1c(C(=O)Nc3cc(C)n(Cc4ccc(Cl)cc4)n3)noc1-2", "inhibition": "inactive: -5%"}
{"compound": "COc1ccc(C2C3=C(CC(C)(C)CC3=O)N(CCN3CCOCC3)C3=C2C(=O)CC(C)(C)C3)cc1", "inhibition": "inconclusive"}
{"compound": "Cn1c2c(c(=O)n(C)c1=O)CN(CCCN1CCOCC1)CN2", "inhibition": "inconclusive"}
{"compound": "CCOC(=O)N1CCN(C(=O)c2oc3ccc(S(=O)(=O)N4CCCCCC4)cc3c2C)CC1", "inhibition": "inconclusive"}
{"compound": "CC1(C)CC(=O)C2=C(C1)Nc1ccccc1N=C2", "inhibition": "inactive: 1%"}
{"compound": "O=S(=O)(NCC(c1cccnc1)N1CCN(c2ccc(F)cc2)CC1)c1ccccc1", "note": "(centres undefined)", "inhibition": "inconclusive"}
{"compound": "COc1ccc(OC)c(-c2cc(C(=O)Nc3cc(C)n(Cc4ccc(Cl)cc4)n3)no2)c1", "inhibition": "inconclusive"}
{"compound": "Nc1c(C(O)(C(F)(F)F)C(F)(F)F)ccc2ccccc12", "inhibition": "inactive: -3%"}
